In US7271160B2, “Methods and compositions for degradation and/or inhibition of HER-family tyrosine kinases” (Sloan-Kettering Institute for Cancer Research, priority 1999, dated 2007):
At least one structure is not confirmed: it was looked up by name or label, or the drawing left a doubt.

Columns and labels:
32D cells = assay: 32D cell growth (HER-kinase negative cells, daily cell counts); format: cell-based, murine; details: 32D cells lacking HER-kinases, various concentrations, counted daily for three days
Description: Murine hematopoietic cell line 32D, which lacks HER-kinases, was kindly provided by Dr Yosef Yarden (The Weizmann Institute of Science, Israel), and maintained in RPMI-1640 supplemented with 10% heat-inactivated FBS, 2 nm interleukin 3 (R&D systems), 2 mM glutamine, and 50 units/ml each of penicillin and streptomycin.

IGF-IR = assay: Immunofluorescence of IGF-IR in MCF-7 cells; format: cell-based, human; details: vs DMSO control
Description: (§1) MCF-7 cells were grown and treated on fibronectin-coated coverslips placed in multiwell plates. Cells were fixed for 20 min at −20° C. in 100% methanol, rehydrated in PBS for 10 min at room temperature and blocked for 30 min at 37° C. in a blocking solution consisting of 2% bovine serum albumin (BSA), 10% normal goat serum and 0.05% Tween-20 in PBS. HER2 and Raf-1 were immunodetected with antibodies from Santa Cruz (SC284 and SC133, respectively); IGF-IR, an antibody from Calbiochem Oncogene Science (Abl). Slides were incubated with a […] of the primary antibody in blocking buffer for 1 hr at room temperature, followed by an incubation with Alexa 546-coupled goat anti-rabbit lgG secondary antibody (A-11010, Molecular Probes) at a […] in blocking buffer, or fluoresceine isothiocyanate-coupled goat anti-mouse IgG (F276, Molecular Probes) at a […]. […] DNA was stained with bisbenzimide, which was included in the secondary antibody solution (3 μg/ml final concentration. Coverslips were mounted on glass slides using Vectashield (Vector), to prevent quenching of fluorescence. Immunofluorescence was detected with a Zeiss epifluorescence microscope, at 40× and 100×, using appropriate filters for detection of rhodamine and bisbenzimide, and via confocal microscopy.

HER2 = assay: Immunofluorescence of HER2 in MCF-7 cells; format: cell-based, human; details: vs DMSO control
Description: as §1

Raf-1 = assay: Immunofluorescence of Raf-1 in MCF-7 cells; format: cell-based, human; details: vs DMSO control
Description: as §1

COC1=C2C[C@@H](C)C[C@H](OC)[C@H](O)[C@@H](C)/C=C(\C)[C@H](OC(N)=O)[C@@H](OC)/C=C\C=C(/C)C(=O)NC(=CC1=O)C2=O [GM, geldanamycin, reference compound]
effect on growth of 32D cells (32D cells): potent inhibitor
effect on growth of 32D cells (32D cells; listed as geldanamycin): very toxic
anti-IGF-IR staining (immunofluorescence) (IGF-IR): reduced staining
anti-HER2 staining (immunofluorescence) (HER2): reduced staining
anti-Raf-1 staining (immunofluorescence) (Raf-1): reduced staining
